Laboratory results from US7449185 (Daiichi Sankyo, dated 2008).
Like-named read-outs stand apart in the source and are kept apart here. Results are given in words; binding and its absence hold for the method and conditions named. Some entries that bind do so weakly or less than the wild type. For part of these data: Where a sequence is shown, tags or fusion partners need not be part of it.

The chains behind the UniProt entries cited, without tags or fusion partners. Where a name states a change or a piece, a line headed by the entry shows the natural chain unless it says otherwise.
UniProt O35235: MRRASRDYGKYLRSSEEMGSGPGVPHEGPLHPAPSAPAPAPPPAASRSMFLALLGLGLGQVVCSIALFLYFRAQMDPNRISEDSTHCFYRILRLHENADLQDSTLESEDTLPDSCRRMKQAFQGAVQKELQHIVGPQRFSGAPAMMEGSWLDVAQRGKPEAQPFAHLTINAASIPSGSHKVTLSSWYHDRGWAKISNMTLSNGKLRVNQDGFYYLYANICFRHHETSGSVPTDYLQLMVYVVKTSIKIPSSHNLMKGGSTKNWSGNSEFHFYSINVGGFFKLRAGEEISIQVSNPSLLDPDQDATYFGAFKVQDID

Tests used:
[1] = target: T1, osteoclastogenesis inhibitory factor (OCIF), recombinant, monomer or dimer type not specified at the place of use (human) (UniProt O00300); test: ELISA: capture by anti-thioredoxin antibody, OCIF added, peroxidase-labeled anti-OCIF antibody
T1 sequence (125I on tyrosine residues where used as 125I-labeled OCIF (Iodogen method), looked up): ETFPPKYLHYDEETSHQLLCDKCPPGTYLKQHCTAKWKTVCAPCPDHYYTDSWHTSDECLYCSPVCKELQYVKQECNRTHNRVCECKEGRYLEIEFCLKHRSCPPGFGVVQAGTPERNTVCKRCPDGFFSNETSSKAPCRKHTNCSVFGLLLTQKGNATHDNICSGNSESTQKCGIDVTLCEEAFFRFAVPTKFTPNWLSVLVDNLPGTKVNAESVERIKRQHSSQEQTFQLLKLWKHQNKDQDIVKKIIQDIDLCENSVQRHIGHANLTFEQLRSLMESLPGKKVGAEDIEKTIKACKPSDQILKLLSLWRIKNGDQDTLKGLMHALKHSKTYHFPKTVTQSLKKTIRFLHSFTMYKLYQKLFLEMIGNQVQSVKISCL

[2] = target: natural OCIF-binding protein (mouse OBM) on mouse osteoblastic stromal ST2 cells cultured with active-form vitamin D3 and dexamethasone (mouse) (UniProt O35235); test: 125I-OCIF binding to ST2 cells, time course
[3] = target: natural OCIF-binding protein (mouse OBM) on mouse osteoblastic stromal ST2 cells cultured with active-form vitamin D3 and dexamethasone (mouse) (UniProt O35235); test: DSS crosslinking on ST2 cells, SDS-PAGE, autoradiography
[4] = target: T2, human OBM expressed on COS-7 cells transfected with phOBM (human) (UniProt O14788); test: DSS crosslinking on phOBM-transfected COS-7 cells, SDS-PAGE, autoradiography
T2 sequence: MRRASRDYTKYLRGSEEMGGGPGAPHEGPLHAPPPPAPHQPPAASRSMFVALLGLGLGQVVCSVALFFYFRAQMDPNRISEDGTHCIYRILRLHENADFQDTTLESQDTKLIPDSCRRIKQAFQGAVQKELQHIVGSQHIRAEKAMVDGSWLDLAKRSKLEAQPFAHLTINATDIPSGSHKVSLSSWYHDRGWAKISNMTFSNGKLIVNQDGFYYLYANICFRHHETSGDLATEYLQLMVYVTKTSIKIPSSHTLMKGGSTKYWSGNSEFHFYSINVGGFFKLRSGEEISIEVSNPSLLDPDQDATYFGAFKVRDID

[5] = target: mouse OBM expressed on COS-7 cells transfected with pOBM291 (mouse) (UniProt O35235); test: DSS crosslinking on pOBM291-transfected COS-7 cells, SDS-PAGE, autoradiography
[6] = target: natural type purified OCIF-binding protein from ST2 cell membranes (mouse) (UniProt O35235); test: OCIF added to column fractions, immunoprecipitation with anti-OCIF polyclonal antibody, SDS-PAGE
[7] = target: T3, human soluble OBM (hsOBM) (human) (UniProt O14788); test: ELISA: culture supernatant immobilized, rOCIF 3-100 ng/ml, peroxidase-labeled anti-OCIF antibody
T3 sequence: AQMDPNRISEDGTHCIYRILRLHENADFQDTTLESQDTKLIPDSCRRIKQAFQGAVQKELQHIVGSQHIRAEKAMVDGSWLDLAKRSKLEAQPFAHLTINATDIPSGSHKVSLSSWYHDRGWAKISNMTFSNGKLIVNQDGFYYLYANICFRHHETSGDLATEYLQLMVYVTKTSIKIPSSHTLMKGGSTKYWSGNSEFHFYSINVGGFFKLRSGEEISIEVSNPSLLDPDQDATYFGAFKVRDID

[8] = target: mouse soluble OBM (msOBM) (mouse) (UniProt O35235); test: as above
[9] = target: natural OCIF-binding protein (mouse OBM) on mouse osteoblastic stromal ST2 cells cultured with active-form vitamin D3 and dexamethasone (mouse) (UniProt O35235); test: 125I-OCIF (monomer or dimer form, 20 ng/ml) binding to cultured cells, gamma counting
[10] = target: mouse OBM expressed on COS-7 cells transfected with pOBM291 (mouse) (UniProt O35235); test: 125I-OCIF (20 ng/ml) binding to transfected COS cells; inhibited by 400-fold unlabeled OCIF
[11] = target: mouse OBM expressed on COS-7 cells transfected with pOBM291 (mouse) (UniProt O35235); test: expression cloning: 125I-OCIF (20 ng/ml) binding to transfected COS-7 cells
[12] = target: T2, human OBM expressed on COS-7 cells transfected with phOBM (human); test: 125I-OCIF (20 ng/ml) binding to transfected COS-7 cells; inhibited by 400-fold unlabeled OCIF
[13] = target: natural type purified OCIF-binding protein from ST2 cell membranes (mouse) (UniProt O35235); test: OCIF-immobilized affinity column, SDS-PAGE of eluate
[14] = target: T3, human soluble OBM (hsOBM) (human); test: ELISA: conditioned medium immobilized, OCIF 3-100 ng/ml, peroxidase-labeled anti-OCIF antibody
[15] = target: secreted-form OBM (mouse) in conditioned medium of 293-EBNA cells transfected with pCEP sOBM (Example 14) (mouse) (UniProt O35235); test: as above
[16] = target: T1, osteoclastogenesis inhibitory factor (OCIF), recombinant, monomer or dimer type not specified at the place of use (human); test: ELISA: capture by anti-thioredoxin antibody, OCIF added, peroxidase-labeled anti-OCIF antibody; remark: listed apart in the source
[17] = target: T4, calcitonin receptor on TRAP positive cells formed from mouse spleen cells (mouse) (UniProt Q60755); test: binding of 125I-calcitonin to TRAP positive cells induced by Trx-hOBM or secreted-form hOBM
T4 sequence (looked up): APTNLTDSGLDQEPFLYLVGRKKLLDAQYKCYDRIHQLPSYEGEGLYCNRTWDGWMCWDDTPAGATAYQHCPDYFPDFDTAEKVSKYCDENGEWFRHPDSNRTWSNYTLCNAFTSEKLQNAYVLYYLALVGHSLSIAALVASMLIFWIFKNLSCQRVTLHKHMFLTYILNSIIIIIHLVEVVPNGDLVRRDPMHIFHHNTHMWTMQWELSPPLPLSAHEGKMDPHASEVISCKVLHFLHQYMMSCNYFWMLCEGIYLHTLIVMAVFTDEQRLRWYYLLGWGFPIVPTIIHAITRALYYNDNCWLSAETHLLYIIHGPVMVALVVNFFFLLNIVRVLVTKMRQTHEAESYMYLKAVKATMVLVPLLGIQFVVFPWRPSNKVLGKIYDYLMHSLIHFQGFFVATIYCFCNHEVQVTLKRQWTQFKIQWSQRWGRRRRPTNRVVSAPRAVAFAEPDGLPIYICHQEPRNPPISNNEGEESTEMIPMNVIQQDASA

[18] = target: T4, calcitonin receptor on TRAP positive cells formed from mouse spleen cells (mouse); test: binding of 125I-calcitonin to TRAP positive cells induced by fixed phOBM-transfected COS-7 cells

Measured: binding

thioredoxin-OBM fusion protein (Trx-OBM) (from UniProt O35235 76-316)
binds: [1]

B1: OCIF, monomer type (60 kDa) (receptor, human, UniProt O00300 22-401, looked up)
chain: T1 sequence (125I on tyrosine residues where used as 125I-labeled OCIF (Iodogen method), looked up)
modifications: 125I on tyrosine residues (Iodogen method)
binds: [2] | [3] | [4] | [5]

B2: osteoclastogenesis inhibitory factor (OCIF), recombinant, monomer or dimer type not specified at the place of use (receptor, human, UniProt O00300 22-401, looked up)
chain: T1 sequence (125I on tyrosine residues where used as 125I-labeled OCIF (Iodogen method), looked up)
modifications: 125I on tyrosine residues where used as 125I-labeled OCIF (Iodogen method)
binds: [6] | [7] | [8] | [9] | [10] | [11] | [12] | [13] | [14] | [15]

B3: thioredoxin-human OBM fusion protein (Trx-hOBM) (protein, not shown: large carriers)
chain: DPNRISEDGTHCIYRILRLHENADFQDTTLESQDTKLIPDSCRRIKQAFQGAVQKELQHIVGSQHIRAEKAMVDGSWLDLAKRSKLEAQPFAHLTINATDIPSGSHKVSLSSWYHDRGWAKISNMTFSNGKLIVNQDGFYYLYANICFRHHETSGDLATEYLQLMVYVTKTSIKIPSSHTLMKGGSTKYWSGNSEFHFYSINVGGFFKLRSGEEISIEVSNPSLLDPDQDATYFGAFKVRDID
binds: [16]

B4: 125I-labeled salmon calcitonin (Amersham Co.) (peptide, UniProt P01263 83-114, looked up)
peptide: CSNLSTCVLGKLSQELHKLQTYPRTNTGSGTP
modifications: 125I-labeled
binds: [17] | [18]
